Experimental data published in PubChem BioAssay AID493014 (National Center for Advancing Translational Sciences (NCATS), 2011).
The campaign covered roughly 340,000 compounds. About 170 (0.05%) were called active. Inconclusive results, whose numbers are uncertain, are shown with a selection of clear calls. The call rests on the fitted dose curve; in most records, active means well fitted inhibition curve with a large enough effect in the signal ratio, with a control signal flat (not every such curve was filed as active); inconclusive means small, poorly fitted or top-dose-only effect, or effect the other way, or a change in a side signal; inactive means flat fitted curve, though single readings scatter; the % refers to the signal ratio. Potencies of inconclusive entries are doubtful fits and often do not repeat.

assay: qHTS Assay to Find Inhibitors of Chronic Active B-Cell Receptor Signaling; conditions: ABC-DLBCL IkBa-CBG/CBR reporter, luminescence ratio (green luciferase fused to IkBa over red control in TMD8 lymphoma cells), 4 h; activity change, negative = inhibition: at 46.1 µM (top of the series) unless noted;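 on activity change, negative = inhibition: plate controls were basal doxycycline-induced cells for no effect and cells given 10 µM MG132 for full effect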
Method in brief: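 Concentration-response series (up to 46 uM) were applied to TMD8 dual-reporter cells for 4 h at 37C with doxycycline. Green/red ratio, after filter-overlap correction, defined %Activity; red signal alone was normalised to basal cells and zero luminescence.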
Potency means the concentration at half of the fitted maximal effect.

SMILES	Potency	activity change, negative = inhibition
O=C(Nc1cccc(Br)c1)c1ccn[nH]1	inconclusive: 20 µM [falling, partial curve]	
O=[N+]([O-])c1ccc(O)c(/C=N/Nc2ccccn2)c1	inconclusive: 29.1 µM [falling, single point]	
O=C(CSc1nc(=O)n2cc(Cl)ccc2n1)Nc1cccc2ccccc12		inconclusive: -19.8%
NC(=O)[C@@H]1CCCN1C(=O)c1ccc2nc(Cc3ccccc3F)oc2c1		inconclusive: -21.5%
CCCCC(CC)C(=O)NCc1ccc(F)cc1 (stereo not drawn)		inconclusive: 4.76%
C=CCOc1ccccc1CN(C(=O)CCl)c1ccc2c(c1)OCO2		inconclusive: -6.83%
COc1ccc(N(CC(=O)Nc2ccc(F)c(Cl)c2)S(=O)(=O)c2c(C)noc2C)cc1		inconclusive: -3.23%
Cc1[nH]c2ccc(F)cc2c1CCN(Cc1ccncc1)C(=S)Nc1ccccc1		inconclusive: 1.52%
O=C(Oc1ccc(Cl)cc1)c1ccc(COC(=O)c2cnccn2)cc1	inconclusive: 18.4 µM [rising, partial curve, poor fit]	
Cc1ccccc1-n1c(SCC(=O)c2cc(C)n(C)c2C)nnc1-c1ccncc1	inconclusive: 0.316 µM [falling, full curve, poor fit]	
CC1(C)CC(=O)C(C=NCC2CCCO2)=C(O)C1 (stereo not drawn)		inconclusive: 3.9%
CCCNC(=O)N1CCC(Cc2ccccc2)CC1		inconclusive: -2.37%
CCCCCCSc1cccc(-c2nc3ccccn3c2NCc2ccccc2)c1		inactive: 1.01%
COc1cccc(C(=O)Cn2c(=N)n(C)c3ccccc32)c1		inconclusive: -3.94%
COc1ccccc1C(CNC(=O)c1ccc(C)c(S(=O)(=O)N2CCCCC2)c1)N(C)C (stereo not drawn)		inconclusive: -8.91%
CC(C)(C)OC(=O)COc1cc(OCC(=O)OC(C)(C)C)c2c(=O)cc(-c3ccccc3)oc2c1		inconclusive: 15.3%
Cc1c(Cc2ccccc2)sc(NC(=O)c2ccco2)c1C(N)=O	inconclusive: 0.206 µM [rising, full curve, poor fit]	
COc1ccccc1C(=O)NCC(=O)NNC(=O)c1cccs1		inconclusive: -3.4%
COc1ccc(C(=O)NN(C)c2nc(-c3ccccc3)nnc2C(F)(F)F)cc1		inconclusive: 6.61%
Nc1nonc1C(=O)N/N=C\c1cc2c(cc1Cl)OCO2		inconclusive: -0.405%
COc1cc2[nH]c(=S)nc(NCCc3ccc(S(N)(=O)=O)cc3)c2cc1OC		inconclusive: 2.25%
Cc1cc(Nc2ccc(N3CCC(C)CC3)cc2)n2ncnc2n1	inconclusive: 25.9 µM [falling, single point]	
CC(=O)c1c(C)nc(Nc2nc(C)c3cc(C)ccc3n2)nc1C		inconclusive: -1.18%
O=C(O)CCn1c(-c2ccccn2)nc2ccccc21		inactive: -0.171%
COc1ccc(/C=C/C(=O)Nc2ccccc2C(=O)NCC(c2ccc(OC)cc2)N(C)C)cc1 (stereo not drawn)	inconclusive: 31.6 µM [falling, single point]	
CC[C@]12c3[nH]c4ccc(Cl)cc4c3CCN1C(=O)[C@@H](CC(=O)NC/C=C(\C)CCC=C(C)C)C[C@@H]2C(=O)N1CCN(C(=O)C2CC2)CC1		inconclusive: -0.299%

SMILES	Potency	activity change, negative = inhibition
O=C(NC1CC1)C1=C[C@H](c2c[nH]c3ccccc23)C[C@H](OCc2ccc(CO)cc2)O1		inconclusive: 0.148%
CC1(C)CC(=O)C2=C(C1)OC(N)=C(C#N)C2c1cn(-c2ccccc2)nc1-c1ccccc1 (stereo not drawn)	inconclusive: 29.1 µM [falling, partial curve, poor fit]	
CCCCOc1ccc(/C=C/C(=O)OCC(=O)c2c(N)n(C)c(=O)n(C)c2=O)cc1OCC		inactive: -13%
O=C(Nc1nc(=O)c2ccccc2s1)c1ccccc1	inconclusive: 5.17 µM [falling, partial curve]	
COc1ccc(CCNCc2c(-c3ccccc3)n(C)c3ccccc23)cc1		inconclusive: -18.2%
CNc1snc(C)c1C(=O)OC(C)C(=O)Nc1ccccc1 (stereo not drawn)		inconclusive: -0.954%
O=C(/C=C1\C(=O)Nc2ccccc21)/C=C1\C(=O)Nc2ccccc21	inconclusive: 6.31 µM [falling, partial curve, poor fit]	
O=C(CSC1=NCCS1)N1CCc2ccccc21		inconclusive: -1.12%
O=C(/C=C/c1ccccc1)NC(NC(=S)Nc1cccc(O)c1)C(Cl)(Cl)Cl (stereo not drawn)		inactive: 19.5%
O=C(CC1C(=O)NCCN1Cc1ccc(Cl)c(F)c1)NC1CCC1 (stereo not drawn)		inactive: -8.53%
CC(C)c1ccccc1OCCNS(C)(=O)=O		inconclusive: -0.579%
Cc1cc(C)c(OCCN(C)Cc2ccccc2)c(Br)c1		inconclusive: -2.81%
Cc1ccc(COc2ccsc2C(=O)NNC(N)=S)cc1	inconclusive: 35.5 µM [falling, partial curve, poor fit]	
CN(CC(=O)Nc1cccc(F)c1)CC(=O)Nc1ccccc1[N+](=O)[O-]	inconclusive: 7.94 µM [falling, partial curve, poor fit]	
Oc1c(C(c2ccccn2)N2CCCCC2)cc(Cl)c2cccnc12 (stereo not drawn)	inconclusive: 11.2 µM [falling, partial curve, poor fit]	
Cc1cc(NCCCN2CCOCC2)n2c(nc3ccccc32)c1C#N		inconclusive: 15%
N#Cc1cccc(NC(=O)CNc2cccc(S(=O)(=O)N3CCCC3)c2)c1		inconclusive: -1.16%
O=C(CNC(=O)c1ccccc1F)NCCc1ccccc1F		inconclusive: 0.355%
COc1ccc(C(=O)Nc2nc3ccccc3c(=O)[nH]2)cc1	inconclusive: 3.66 µM [falling, partial curve, poor fit]	
Cn1cnnc1SCC(=O)Nc1ncc([N+](=O)[O-])s1		inconclusive: -20%
Cc1onc(-c2ccccc2Cl)c1C(=O)NCc1ccccn1		inactive: 1.84%
OCCNCc1ccc(-c2ccccc2)cc1		inconclusive: -25.3%
CSc1ncccc1C(=O)Nc1nnc(C2CC2)s1	inconclusive: 20 µM [falling, partial curve, poor fit]	
CC(=O)NCCc1csc(-c2ccccc2)n1		inconclusive: 10.4%
C/C=C(\C)C(=O)Nc1cccc(C2=NOC3(C2)C[C@@H](C(N)=O)N(C(=O)c2cc([N+](=O)[O-])cc([N+](=O)[O-])c2C)C3)c1 (stereo partly drawn)		inconclusive: -14%
O=C(O)C(Oc1ccc2c(c1)oc(=O)c1ccccc12)c1ccccc1 (stereo not drawn)		inconclusive: 0.312%

SMILES	Potency	activity change, negative = inhibition
CCc1ccc2c(c1)[C@H]1OCC[C@H]1[C@@H](c1cccs1)N2		inconclusive: 1.46%
CS(=O)(=O)N(CC(=O)N/N=C/c1cc([N+](=O)[O-])ccc1Cl)c1ccccc1		inactive: 3.82%
CCC1CCCCN1C(=O)Cn1c(C(=O)OC)cc2sc(Cl)cc21 (stereo not drawn)	inconclusive: 8.2 µM [activator, partial curve, poor fit]	
CC1CCCN(C(=O)Cn2c(-c3nonc3N)nc3ccccc32)C1 (stereo not drawn)		inconclusive: 11.8%
CC1=CCC2C(=O)N(c3cccc(C(=O)Nc4ccccc4Cl)c3)C(=O)C2C1 (stereo not drawn)		inactive: 0.745%
Nc1nc(Nc2ccccc2)nc(NCc2ccccc2)c1[N+](=O)[O-]		inactive: -18.4%
COC(=O)C1(Cc2ccc(O)c(CC3OC3(C)C)c2)OC(=O)C(O)=C1c1ccc(O)cc1 (stereo not drawn)		inactive: -4.84%
Cc1ccc(NC(=O)N2CCN(C)CC2)cc1NC(=O)N1CCN(C)CC1		inconclusive: 1.65%
C=CCSc1n[nH]c(-c2ccc(OC)cc2)n1	inconclusive: 29.1 µM [falling, single point]	
O=C(Nc1ccc([N+](=O)[O-])cc1Cl)c1cc(Cl)ccc1O	inconclusive: 2.06 µM [rising, partial curve]	
O=C(Cc1cccc2ccccc12)Nc1ccc2c(c1)C(=O)NC2=O	inconclusive: 12.6 µM [falling, single point]	
CC(C)NC(=O)NC(=O)COC(=O)c1ncc(Cl)c(Cl)c1Cl		inactive: -6.71%
COc1ccccc1C(=O)NCC(=O)NC(C)c1ccc(-n2ccnc2)cc1 (stereo not drawn)		inactive: 10.4%
CCN1CCN(S(=O)(=O)c2ccc(Cl)c(C(=O)NC3CC3)c2)CC1		inconclusive: -0.289%
COc1ccccc1NC(=O)CSc1nc2nc(C)cc(C)c2c(=O)[nH]1		inconclusive: -21.3%
CCOc1ccc(Br)cc1C(=O)N/N=C/c1cccc(C)n1		inactive: -1.3%
CCCOc1ccc(-c2nc(C#N)c(N3CCC(C(N)=O)CC3)o2)cc1		inactive: 0.0177%
COc1cccc(Nc2nc(N)nc(-c3oc4ccccc4c3C)n2)c1	inconclusive: 10 µM [falling, partial curve, poor fit]	
c1ccc(-c2csc3ncnc(N4CCOCC4)c23)cc1		inconclusive: 11.4%
O=C(Nc1ccccc1)C1=C[C@H](c2ccc(Br)cc2)C[C@H](OCc2ccc(CO)cc2)O1		inconclusive: -28.9%
Cc1nc(NC(=O)c2c(-c3ccccc3Cl)noc2C)sc1C		inconclusive: 13.4%
CC(C)=NOCc1ccc(-c2cn([C@@H]3COC[C@H]3O)nn2)cc1		inconclusive: 4.74%
Cc1nc2nc(C)c(NS(=O)(=O)c3ccc(Cl)s3)c(=O)n2[nH]1		inconclusive: -3.37%
Cc1ccc2c(c1)C1CN(C)CCC1N2C(=O)c1ccc(Cl)c(S(=O)(=O)N2CCOCC2)c1 (stereo not drawn)		inactive: -12.9%
O=C(NNc1cccc([N+](=O)[O-])c1)/C(=C\c1cccnc1)NC(=O)c1ccccc1		inconclusive: 16.9%
Cc1ccnc(NS(=O)(=O)c2ccc(NC(=O)C34CC5CC(C)(CC(C)(C5)C3)C4)cc2)n1	inconclusive: 18.4 µM [falling, single point]	

A second format for 15 compounds above.
SMILES,Potency,"activity change, negative = inhibition"
CS(=O)(=O)N(CC(=O)N/N=C/c1cc([N+](=O)[O-])ccc1Cl)c1ccccc1,,inactive: 3.82%
CC1=CCC2C(=O)N(c3cccc(C(=O)Nc4ccccc4Cl)c3)C(=O)C2C1 (stereo not drawn),,inactive: 0.745%
Nc1nc(Nc2ccccc2)nc(NCc2ccccc2)c1[N+](=O)[O-],,inactive: -18.4%
Cc1ccc(NC(=O)N2CCN(C)CC2)cc1NC(=O)N1CCN(C)CC1,,inconclusive: 1.65%
C=CCSc1n[nH]c(-c2ccc(OC)cc2)n1,"inconclusive: 29.1 µM [falling, single point]",
O=C(Nc1ccc([N+](=O)[O-])cc1Cl)c1cc(Cl)ccc1O,"inconclusive: 2.06 µM [rising, partial curve]",
O=C(Cc1cccc2ccccc12)Nc1ccc2c(c1)C(=O)NC2=O,"inconclusive: 12.6 µM [falling, single point]",
COc1ccccc1C(=O)NCC(=O)NC(C)c1ccc(-n2ccnc2)cc1 (stereo not drawn),,inactive: 10.4%
CCN1CCN(S(=O)(=O)c2ccc(Cl)c(C(=O)NC3CC3)c2)CC1,,inconclusive: -0.289%
COc1ccccc1NC(=O)CSc1nc2nc(C)cc(C)c2c(=O)[nH]1,,inconclusive: -21.3%
CCOc1ccc(Br)cc1C(=O)N/N=C/c1cccc(C)n1,,inactive: -1.3%
CCCOc1ccc(-c2nc(C#N)c(N3CCC(C(N)=O)CC3)o2)cc1,,inactive: 0.0177%
c1ccc(-c2csc3ncnc(N4CCOCC4)c23)cc1,,inconclusive: 11.4%
Cc1nc2nc(C)c(NS(=O)(=O)c3ccc(Cl)s3)c(=O)n2[nH]1,,inconclusive: -3.37%
Cc1ccnc(NS(=O)(=O)c2ccc(NC(=O)C34CC5CC(C)(CC(C)(C5)C3)C4)cc2)n1,"inconclusive: 18.4 µM [falling, single point]",
